The list shows a part of the results.
compound: CN(CCOC1=CC=C(C=C1)C[C@H]2C(=O)NC(=O)S2)C3=CC=CC=N3 (racemic) [rosiglitazone]; test: log2 fold change, soluble protein after heating vs DMSO (PISA); higher = thermal stabilisation; K562 cells, 10 uM, 30 min; active = over 0.2 and 3.5 SD of the protein, either way, in both replicates (recomputed)
How it was run: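 K562 cells at 2×10^6 cells/mL were treated with 10 μM compound for 30 min. Aliquots were heated for 3 min across 48°C-58°C, pooled, and extracted in PBS with 0.5% NP-40 at 4°C; soluble protein was the supernatant after 21,000xg for 90 min. Soluble protein was quantified by TMTpro 16plex LC-MS/MS with channel sums equalised, and reported as log2 fold change in thermal stability against DMSO controls, with values from duplicates.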

Sequences of proteins named here, by UniProt entry; tags and fusion partners are left off. A change or cut given only in a name is not applied to a line headed by its entry.
UniProt P0C7P0: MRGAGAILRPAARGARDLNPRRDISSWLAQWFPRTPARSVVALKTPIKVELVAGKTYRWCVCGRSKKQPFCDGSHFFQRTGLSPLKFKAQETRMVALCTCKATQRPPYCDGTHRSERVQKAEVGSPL
UniProt P09496: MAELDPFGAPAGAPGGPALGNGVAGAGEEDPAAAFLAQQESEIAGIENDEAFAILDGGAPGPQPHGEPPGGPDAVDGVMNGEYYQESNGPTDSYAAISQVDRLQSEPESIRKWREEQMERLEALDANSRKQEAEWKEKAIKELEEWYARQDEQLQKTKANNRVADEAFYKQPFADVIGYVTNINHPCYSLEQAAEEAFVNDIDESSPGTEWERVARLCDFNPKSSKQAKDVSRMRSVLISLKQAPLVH
UniProt Q9BQ75: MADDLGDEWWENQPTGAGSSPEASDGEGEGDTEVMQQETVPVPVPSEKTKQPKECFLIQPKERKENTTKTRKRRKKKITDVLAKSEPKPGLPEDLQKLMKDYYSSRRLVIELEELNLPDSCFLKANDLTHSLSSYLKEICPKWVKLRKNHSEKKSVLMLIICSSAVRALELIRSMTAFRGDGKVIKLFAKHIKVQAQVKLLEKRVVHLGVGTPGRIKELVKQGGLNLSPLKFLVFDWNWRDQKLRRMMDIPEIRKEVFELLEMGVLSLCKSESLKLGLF
UniProt Q9UFF9, whole entry, looked up: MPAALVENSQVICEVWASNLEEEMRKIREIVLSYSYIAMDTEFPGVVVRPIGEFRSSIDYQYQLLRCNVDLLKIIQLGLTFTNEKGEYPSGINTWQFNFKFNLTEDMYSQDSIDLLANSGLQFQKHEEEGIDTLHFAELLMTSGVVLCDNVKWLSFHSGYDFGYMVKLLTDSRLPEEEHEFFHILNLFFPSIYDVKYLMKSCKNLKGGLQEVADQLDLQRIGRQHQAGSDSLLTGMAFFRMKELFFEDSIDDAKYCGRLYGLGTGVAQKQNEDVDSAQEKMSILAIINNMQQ
UniProt Q9Y2R0: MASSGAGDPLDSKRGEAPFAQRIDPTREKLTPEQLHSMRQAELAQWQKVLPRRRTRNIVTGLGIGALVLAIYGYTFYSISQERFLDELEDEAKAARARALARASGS
UniProt P09543: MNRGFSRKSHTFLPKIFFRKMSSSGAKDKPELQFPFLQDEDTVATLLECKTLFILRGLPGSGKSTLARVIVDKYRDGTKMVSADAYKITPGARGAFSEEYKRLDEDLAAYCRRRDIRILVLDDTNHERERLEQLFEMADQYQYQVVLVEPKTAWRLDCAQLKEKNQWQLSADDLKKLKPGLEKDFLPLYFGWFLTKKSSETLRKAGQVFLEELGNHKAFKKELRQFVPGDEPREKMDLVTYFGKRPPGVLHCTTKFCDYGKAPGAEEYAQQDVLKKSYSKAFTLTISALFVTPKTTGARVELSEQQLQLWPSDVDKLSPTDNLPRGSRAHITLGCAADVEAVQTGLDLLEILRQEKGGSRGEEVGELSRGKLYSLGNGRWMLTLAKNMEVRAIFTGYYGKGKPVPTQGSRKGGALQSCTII
UniProt Q96BR5: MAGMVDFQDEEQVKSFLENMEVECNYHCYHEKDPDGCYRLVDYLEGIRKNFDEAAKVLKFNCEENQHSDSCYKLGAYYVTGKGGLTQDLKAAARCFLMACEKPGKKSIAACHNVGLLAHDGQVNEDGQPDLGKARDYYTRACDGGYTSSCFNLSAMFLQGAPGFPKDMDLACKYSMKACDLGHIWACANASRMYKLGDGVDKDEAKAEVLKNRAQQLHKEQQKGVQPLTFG
UniProt Q7Z460: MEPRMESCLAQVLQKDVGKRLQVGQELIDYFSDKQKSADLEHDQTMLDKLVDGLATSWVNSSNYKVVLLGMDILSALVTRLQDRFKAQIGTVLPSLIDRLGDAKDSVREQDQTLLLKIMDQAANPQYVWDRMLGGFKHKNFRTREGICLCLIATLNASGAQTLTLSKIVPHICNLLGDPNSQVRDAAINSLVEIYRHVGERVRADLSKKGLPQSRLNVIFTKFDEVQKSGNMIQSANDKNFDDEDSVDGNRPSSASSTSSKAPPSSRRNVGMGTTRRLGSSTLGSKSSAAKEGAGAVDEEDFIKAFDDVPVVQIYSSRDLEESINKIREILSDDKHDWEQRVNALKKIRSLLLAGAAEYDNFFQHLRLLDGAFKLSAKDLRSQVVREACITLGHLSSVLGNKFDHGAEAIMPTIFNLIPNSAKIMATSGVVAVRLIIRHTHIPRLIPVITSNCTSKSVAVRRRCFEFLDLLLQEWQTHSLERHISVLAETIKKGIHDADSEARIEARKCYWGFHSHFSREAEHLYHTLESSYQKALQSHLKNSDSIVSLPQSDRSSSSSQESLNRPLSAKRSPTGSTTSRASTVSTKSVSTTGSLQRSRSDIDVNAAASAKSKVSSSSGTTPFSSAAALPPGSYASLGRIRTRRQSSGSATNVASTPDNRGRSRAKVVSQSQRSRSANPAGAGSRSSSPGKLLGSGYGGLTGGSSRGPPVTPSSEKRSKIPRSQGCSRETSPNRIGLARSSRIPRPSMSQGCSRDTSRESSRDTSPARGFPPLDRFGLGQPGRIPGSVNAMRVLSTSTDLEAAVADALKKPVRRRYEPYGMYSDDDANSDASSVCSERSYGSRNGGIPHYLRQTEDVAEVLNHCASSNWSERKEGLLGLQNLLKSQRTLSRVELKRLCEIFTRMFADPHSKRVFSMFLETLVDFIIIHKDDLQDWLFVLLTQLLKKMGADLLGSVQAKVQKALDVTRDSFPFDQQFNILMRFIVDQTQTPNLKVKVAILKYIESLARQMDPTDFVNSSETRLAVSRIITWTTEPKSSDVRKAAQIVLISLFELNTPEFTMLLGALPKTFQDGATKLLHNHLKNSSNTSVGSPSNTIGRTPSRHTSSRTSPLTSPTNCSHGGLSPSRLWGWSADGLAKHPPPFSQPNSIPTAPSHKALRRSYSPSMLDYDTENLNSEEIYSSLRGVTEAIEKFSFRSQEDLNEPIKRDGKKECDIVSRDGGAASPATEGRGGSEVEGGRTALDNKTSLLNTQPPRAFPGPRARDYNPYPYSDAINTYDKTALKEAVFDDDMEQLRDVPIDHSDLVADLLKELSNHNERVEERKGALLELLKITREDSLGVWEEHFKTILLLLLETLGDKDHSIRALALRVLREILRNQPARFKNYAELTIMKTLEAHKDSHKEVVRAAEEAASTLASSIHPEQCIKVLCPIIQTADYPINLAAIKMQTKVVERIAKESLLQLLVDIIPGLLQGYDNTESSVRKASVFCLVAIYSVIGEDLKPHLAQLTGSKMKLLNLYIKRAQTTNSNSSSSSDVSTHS
UniProt P54105: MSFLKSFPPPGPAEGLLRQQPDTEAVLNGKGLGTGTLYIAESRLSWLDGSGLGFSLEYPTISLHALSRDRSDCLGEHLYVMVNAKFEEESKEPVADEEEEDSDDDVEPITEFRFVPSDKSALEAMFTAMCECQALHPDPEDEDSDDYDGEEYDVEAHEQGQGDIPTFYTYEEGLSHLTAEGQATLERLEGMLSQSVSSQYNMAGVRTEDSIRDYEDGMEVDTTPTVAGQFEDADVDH
UniProt Q8NFW8: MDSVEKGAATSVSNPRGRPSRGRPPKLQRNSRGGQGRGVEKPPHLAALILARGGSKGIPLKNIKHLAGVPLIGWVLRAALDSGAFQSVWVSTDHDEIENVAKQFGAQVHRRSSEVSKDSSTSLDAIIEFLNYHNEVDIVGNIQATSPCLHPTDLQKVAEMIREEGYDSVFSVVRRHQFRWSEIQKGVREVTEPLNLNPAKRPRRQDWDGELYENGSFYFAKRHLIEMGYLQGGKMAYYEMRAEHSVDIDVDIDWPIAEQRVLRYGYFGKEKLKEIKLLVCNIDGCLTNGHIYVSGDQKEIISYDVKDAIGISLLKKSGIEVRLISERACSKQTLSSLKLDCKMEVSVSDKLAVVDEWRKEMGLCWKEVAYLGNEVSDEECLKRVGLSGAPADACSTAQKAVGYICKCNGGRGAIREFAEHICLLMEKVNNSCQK
UniProt P30622: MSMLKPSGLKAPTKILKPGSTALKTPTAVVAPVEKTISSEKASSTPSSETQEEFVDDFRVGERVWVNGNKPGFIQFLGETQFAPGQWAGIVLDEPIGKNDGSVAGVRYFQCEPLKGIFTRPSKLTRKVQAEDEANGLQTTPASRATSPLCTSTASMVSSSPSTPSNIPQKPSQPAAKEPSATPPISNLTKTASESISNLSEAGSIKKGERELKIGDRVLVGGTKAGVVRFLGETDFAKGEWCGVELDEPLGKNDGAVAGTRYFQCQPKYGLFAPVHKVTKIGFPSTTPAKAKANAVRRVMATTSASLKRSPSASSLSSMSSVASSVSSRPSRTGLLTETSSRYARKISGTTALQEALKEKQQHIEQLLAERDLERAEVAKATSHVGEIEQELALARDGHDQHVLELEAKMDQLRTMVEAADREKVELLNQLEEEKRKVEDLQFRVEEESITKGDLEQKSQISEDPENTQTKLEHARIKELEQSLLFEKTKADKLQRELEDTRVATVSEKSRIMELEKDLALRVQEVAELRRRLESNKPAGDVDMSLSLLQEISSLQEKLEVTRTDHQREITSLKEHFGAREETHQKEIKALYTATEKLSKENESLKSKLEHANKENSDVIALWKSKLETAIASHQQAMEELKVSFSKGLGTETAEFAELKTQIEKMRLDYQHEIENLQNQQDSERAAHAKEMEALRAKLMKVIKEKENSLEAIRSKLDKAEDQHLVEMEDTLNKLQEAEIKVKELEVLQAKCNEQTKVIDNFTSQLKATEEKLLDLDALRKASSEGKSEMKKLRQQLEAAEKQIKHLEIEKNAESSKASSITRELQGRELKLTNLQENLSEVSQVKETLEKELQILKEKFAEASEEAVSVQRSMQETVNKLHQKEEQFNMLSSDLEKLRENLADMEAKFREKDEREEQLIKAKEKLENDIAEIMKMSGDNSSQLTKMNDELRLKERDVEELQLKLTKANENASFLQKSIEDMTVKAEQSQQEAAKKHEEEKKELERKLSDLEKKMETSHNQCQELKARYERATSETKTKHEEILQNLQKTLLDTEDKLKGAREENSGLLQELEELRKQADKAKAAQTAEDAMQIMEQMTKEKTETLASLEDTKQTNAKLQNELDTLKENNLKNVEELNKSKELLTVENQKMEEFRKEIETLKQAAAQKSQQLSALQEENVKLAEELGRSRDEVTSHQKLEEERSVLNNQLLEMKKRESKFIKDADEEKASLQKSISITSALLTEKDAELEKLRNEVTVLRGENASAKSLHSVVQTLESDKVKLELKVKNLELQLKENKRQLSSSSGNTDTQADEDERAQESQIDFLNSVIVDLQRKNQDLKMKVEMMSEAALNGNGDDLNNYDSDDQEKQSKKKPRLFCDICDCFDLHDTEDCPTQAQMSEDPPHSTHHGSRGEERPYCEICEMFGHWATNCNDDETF
UniProt Q9H5X1: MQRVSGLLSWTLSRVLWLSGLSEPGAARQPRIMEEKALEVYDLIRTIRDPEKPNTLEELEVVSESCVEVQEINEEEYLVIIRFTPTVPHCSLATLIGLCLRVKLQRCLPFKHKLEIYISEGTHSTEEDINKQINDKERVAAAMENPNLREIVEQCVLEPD
UniProt P62633: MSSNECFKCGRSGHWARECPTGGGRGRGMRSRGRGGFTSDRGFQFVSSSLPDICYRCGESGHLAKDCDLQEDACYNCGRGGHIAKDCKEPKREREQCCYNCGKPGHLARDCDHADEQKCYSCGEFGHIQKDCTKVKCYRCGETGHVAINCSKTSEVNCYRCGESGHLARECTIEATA
UniProt P30085: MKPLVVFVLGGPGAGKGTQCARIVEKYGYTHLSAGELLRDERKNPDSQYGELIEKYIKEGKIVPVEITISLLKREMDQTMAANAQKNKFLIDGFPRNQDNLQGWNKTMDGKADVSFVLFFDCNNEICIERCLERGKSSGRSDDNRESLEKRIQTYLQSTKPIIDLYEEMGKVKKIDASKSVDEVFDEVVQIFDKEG
UniProt Q9NRP2: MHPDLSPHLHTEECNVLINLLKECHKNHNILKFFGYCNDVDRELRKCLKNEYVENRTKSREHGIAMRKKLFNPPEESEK
UniProt Q8N5K1: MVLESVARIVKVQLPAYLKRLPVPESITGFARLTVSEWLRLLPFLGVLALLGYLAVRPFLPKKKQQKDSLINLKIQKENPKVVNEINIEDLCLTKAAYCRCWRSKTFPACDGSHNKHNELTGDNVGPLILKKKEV

log2 fold change, inactive:
CISD3 (UniProt P0C7P0) 0.087
CLTA isoform 2 (UniProt P09496) -0.046
CMSS1 (UniProt Q9BQ75) -0.054
CNOT8 (UniProt Q9UFF9) -0.06
COA3 (UniProt Q9Y2R0) -0.023
CNP (UniProt P09543) 0.037
CNOT6L (UniProt Q96LI5) 0.18
COL15A1 (UniProt P39059) 0.008
CLEC16A (UniProt Q2KHT3) 0.023
COA7 (UniProt Q96BR5) 0.023
CLASP1 (UniProt Q7Z460) 0.026
CKAP5 (UniProt Q14008) 0.029
CNOT10 isoform 6 (UniProt Q9H9A5) 0.002
CLIC1 (UniProt O00299) -0.004
CLNS1A (UniProt P54105) -0.024
CMAS (UniProt Q8NFW8) -0.052
CKMT1A (UniProt P12532) -0.017
CLIP1 isoform 1 (UniProt P30622) -0.001
CIAO2A (UniProt Q9H5X1) 0.056
CNBP isoform 6 (UniProt P62633) -0.055
CMPK1 (UniProt P30085) 0.02
CMC2 (UniProt Q9NRP2) -0.014
CISD2 (UniProt Q8N5K1) -0.001

As a working copy, some entries already given.
log2 fold change, inactive:
CLIP1 isoform 1 (UniProt P30622) -0.001
CIAO2A (UniProt Q9H5X1) 0.056
CNBP isoform 6 (UniProt P62633) -0.055
CMPK1 (UniProt P30085) 0.02
CMC2 (UniProt Q9NRP2) -0.014

From the supplement of paper PMC10849652
